From publication PMC6836474 come the findings set out here.

Sequences of proteins named here, by UniProt entry; tags and fusion partners are left off. Residues count along the entry.
UniProt P46531, residues 19-2555: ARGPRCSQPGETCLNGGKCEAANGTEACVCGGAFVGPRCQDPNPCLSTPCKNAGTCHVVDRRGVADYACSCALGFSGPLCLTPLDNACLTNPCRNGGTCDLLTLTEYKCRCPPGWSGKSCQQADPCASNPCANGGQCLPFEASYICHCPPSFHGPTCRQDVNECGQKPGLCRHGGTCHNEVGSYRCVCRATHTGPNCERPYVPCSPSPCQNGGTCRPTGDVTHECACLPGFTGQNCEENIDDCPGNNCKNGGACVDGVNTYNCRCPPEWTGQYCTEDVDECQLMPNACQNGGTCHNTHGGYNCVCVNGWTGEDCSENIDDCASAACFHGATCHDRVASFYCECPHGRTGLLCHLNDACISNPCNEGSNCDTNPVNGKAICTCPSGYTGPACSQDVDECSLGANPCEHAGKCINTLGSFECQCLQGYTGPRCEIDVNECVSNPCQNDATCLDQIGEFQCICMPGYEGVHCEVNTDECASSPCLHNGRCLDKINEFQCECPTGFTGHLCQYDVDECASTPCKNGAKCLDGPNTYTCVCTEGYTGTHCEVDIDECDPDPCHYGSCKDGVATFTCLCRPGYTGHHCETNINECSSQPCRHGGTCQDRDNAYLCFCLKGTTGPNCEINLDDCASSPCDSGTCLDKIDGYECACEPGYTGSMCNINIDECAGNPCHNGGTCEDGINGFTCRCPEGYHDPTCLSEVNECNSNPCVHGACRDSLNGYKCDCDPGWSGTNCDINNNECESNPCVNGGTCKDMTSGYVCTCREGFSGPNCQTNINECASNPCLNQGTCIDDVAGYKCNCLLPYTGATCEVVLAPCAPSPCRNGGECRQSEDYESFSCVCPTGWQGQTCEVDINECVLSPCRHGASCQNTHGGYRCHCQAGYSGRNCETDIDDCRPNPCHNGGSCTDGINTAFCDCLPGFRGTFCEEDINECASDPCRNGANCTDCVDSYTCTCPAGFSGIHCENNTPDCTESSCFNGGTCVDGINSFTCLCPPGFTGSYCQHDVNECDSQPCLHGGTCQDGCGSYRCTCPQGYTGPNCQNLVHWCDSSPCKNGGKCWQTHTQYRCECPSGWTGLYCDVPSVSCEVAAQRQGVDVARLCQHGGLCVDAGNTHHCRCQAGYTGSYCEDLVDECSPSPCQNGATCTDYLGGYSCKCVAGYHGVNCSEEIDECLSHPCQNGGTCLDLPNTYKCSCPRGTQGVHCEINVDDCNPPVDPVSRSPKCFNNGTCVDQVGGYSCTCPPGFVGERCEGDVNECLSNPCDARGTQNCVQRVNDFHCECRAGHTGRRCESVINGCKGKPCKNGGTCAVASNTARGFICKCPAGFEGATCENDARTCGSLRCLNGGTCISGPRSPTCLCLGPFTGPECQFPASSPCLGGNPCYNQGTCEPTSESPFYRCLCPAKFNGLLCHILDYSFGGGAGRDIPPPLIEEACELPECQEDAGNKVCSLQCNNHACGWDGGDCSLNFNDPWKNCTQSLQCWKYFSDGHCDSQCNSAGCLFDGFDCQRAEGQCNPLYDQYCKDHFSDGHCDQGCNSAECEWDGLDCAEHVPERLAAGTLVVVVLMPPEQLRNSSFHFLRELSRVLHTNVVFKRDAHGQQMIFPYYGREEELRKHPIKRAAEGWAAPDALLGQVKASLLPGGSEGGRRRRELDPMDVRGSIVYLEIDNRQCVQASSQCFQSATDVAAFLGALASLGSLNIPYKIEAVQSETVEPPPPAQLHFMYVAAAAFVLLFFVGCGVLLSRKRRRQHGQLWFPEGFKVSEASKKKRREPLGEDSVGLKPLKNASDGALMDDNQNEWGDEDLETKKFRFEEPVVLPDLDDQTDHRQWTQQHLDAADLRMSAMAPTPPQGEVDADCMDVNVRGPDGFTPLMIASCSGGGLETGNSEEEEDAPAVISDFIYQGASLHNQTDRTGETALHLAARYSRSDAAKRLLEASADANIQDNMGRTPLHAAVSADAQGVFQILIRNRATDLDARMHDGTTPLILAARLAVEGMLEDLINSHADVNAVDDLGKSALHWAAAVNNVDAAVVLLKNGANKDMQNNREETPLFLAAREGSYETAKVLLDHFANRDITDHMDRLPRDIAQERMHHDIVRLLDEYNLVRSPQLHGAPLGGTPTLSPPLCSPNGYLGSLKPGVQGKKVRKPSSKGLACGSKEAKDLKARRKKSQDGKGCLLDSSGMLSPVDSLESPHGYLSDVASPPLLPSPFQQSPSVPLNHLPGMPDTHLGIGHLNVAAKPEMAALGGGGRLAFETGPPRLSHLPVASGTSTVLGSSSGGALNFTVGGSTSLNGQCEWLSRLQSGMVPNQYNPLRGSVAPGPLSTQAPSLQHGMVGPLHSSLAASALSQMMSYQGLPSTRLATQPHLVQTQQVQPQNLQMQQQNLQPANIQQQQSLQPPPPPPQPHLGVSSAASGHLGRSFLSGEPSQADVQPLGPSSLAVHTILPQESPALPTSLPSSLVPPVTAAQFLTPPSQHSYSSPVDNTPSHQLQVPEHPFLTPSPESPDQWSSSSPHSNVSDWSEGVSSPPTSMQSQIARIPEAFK
UniProt P78504, residues 34-1218: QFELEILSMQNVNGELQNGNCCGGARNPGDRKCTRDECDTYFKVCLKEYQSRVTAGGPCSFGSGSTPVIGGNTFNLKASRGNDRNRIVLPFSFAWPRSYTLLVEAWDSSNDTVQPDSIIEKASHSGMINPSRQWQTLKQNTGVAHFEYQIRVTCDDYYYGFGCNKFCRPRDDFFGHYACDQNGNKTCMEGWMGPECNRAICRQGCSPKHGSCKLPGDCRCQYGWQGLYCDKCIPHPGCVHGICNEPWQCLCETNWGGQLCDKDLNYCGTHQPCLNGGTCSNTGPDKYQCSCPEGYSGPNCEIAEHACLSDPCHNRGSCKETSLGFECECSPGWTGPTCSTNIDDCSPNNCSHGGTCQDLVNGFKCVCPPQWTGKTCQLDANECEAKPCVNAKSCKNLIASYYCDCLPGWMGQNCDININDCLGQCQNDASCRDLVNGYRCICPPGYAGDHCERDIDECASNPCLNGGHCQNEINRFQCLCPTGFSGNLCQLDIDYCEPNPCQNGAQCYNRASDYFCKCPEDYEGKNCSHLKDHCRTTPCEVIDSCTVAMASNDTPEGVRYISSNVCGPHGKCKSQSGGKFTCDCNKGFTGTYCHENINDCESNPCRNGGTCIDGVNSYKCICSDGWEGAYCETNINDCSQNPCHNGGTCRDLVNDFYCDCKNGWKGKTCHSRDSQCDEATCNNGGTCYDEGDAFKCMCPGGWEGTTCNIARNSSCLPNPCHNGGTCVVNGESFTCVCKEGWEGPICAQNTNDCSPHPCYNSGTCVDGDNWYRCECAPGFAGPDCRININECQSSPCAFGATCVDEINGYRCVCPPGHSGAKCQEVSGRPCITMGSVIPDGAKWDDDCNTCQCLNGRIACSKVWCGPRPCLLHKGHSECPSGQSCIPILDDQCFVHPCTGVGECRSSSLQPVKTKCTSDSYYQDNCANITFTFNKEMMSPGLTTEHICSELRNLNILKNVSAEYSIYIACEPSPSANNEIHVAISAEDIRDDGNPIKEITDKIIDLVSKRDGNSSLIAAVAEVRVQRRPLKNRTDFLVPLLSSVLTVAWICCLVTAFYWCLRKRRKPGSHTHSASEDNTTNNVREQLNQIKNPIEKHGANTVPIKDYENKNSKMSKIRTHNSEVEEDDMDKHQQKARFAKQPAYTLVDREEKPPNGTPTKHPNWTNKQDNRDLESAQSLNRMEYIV

Results are given in words; binding and its absence hold for the method and conditions named. Binding seen in cells or lysates may run through a third protein. Some results given as binding are weak or reduced against the parent protein; the word gives no strength.

The target of the test is Notch1 (UniProt P46531). Put plainly: co-IP; cells in 10-cm dishes transfected with 10 μg corresponding plasmids, harvested in PBS containing 1% NP40; Western blot; which partner was precipitated is not stated.

“JAG1 (from UniProt P78504 34-1218) (ligand)”: the binding entry is “binds”.
